# Reference: article PMC4564171 (PLoS ONE, 2015)
# Results are given in words; binding and its absence hold for the method and conditions named.
# Target: MalE-VirF (maltose binding protein–VirF fusion protein) (Shigella flexneri) (UniProt P0A2T1)
# Test: SEC; analytical gel filtration on Superose 12; MalE-VirF 0.75 mg/mL; amylose resin binding buffer (20 mM Tris-HCl, 500 mM NaCl, 1 mM EDTA, pH 7.4); 0.75 mL/min; compared with a 4-point molecular weight calibration curve; both purified
substance,measurement,value
MalE-VirF (maltose binding protein–VirF fusion protein) (from UniProt P0A2T1 1-262),binding,no binding (tested: 0.75 mg/mL)
